Results reported in PMC8927349.

Amino acid sequences for entries named in this document (tags omitted). A change or cut given only in a name is not applied to a line headed by its entry.
UniProt Q6J4K2: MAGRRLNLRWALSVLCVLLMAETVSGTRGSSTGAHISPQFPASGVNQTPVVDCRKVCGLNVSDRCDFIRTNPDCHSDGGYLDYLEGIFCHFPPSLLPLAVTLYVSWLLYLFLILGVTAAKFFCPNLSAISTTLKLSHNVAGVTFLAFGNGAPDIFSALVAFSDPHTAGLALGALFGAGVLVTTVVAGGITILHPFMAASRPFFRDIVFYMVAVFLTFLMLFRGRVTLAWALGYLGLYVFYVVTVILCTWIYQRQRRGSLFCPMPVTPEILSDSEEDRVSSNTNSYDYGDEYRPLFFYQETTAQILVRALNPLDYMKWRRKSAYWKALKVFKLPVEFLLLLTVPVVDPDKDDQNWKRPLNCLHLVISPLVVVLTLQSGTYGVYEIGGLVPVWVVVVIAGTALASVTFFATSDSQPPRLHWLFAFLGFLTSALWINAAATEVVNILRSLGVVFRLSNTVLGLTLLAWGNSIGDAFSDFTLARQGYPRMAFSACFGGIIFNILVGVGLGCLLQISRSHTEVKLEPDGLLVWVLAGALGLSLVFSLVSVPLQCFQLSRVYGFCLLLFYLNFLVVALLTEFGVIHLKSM

Biological target: GST-NCLX recombinant protein (UniProt Q6J4K2)
Assay: pull-down; 1 µg GST-NCLX (or GST) on glutathione sepharose beads; Lon immunoprecipitated from transfected OEC-M1 lysate with Lon antibody and eluted with 0.1 M glycine pH 2.0 was added, mixed end on end for 4 h; washed thrice with lysis buffer; Western blot; both purified

B1: mitochondrial Lon (protein, UniProt P36776 68-959)
chain: FWEASSRGGGAFSGGEDASEGGAEEGAGGAGGSAGAGEGPVITALTPMTIPDVFPHLPLIAITRNPVFPRFIKIIEVKNKKLVELLRRKVRLAQPYVGVFLKRDDSNESDVVESLDEIYHTGTFAQIHEMQDLGDKLRMIVMGHRRVHISRQLEVEPEEPEAENKHKPRRKSKRGKKEAEDELSARHPAELAMEPTPELPAEVLMVEVENVVHEDFQVTEEVKALTAEIVKTIRDIIALNPLYRESVLQMMQAGQRVVDNPIYLSDMGAALTGAESHELQDVLEETNIPKRLYKALSLLKKEFELSKLQQRLGREVEEKIKQTHRKYLLQEQLKIIKKELGLEKDDKDAIEEKFRERLKELVVPKHVMDVVDEELSKLGLLDNHSSEFNVTRNYLDWLTSIPWGKYSNENLDLARAQAVLEEDHYGMEDVKKRILEFIAVSQLRGSTQGKILCFYGPPGVGKTSIARSIARALNREYFRFSVGGMTDVAEIKGHRRTYVGAMPGKIIQCLKKTKTENPLILIDEVDKIGRGYQGDPSSALLELLDPEQNANFLDHYLDVPVDLSKVLFICTANVTDTIPEPLRDRMEMINVSGYVAQEKLAIAERYLVPQARALCGLDESKAKLSSDVLTLLIKQYCRESGVRNLQKQVEKVLRKSAYKIVSGEAESVEVTPENLQDFVGKPVFTVERMYDVTPPGVVMGLAWTAMGGSTLFVETSLRRPQDKDAKGDKDGSLEVTGQLGEVMKESARIAYTFARAFLMQHAPANDYLVTSHIHLHVPEGATPKDGPSAGCTIVTALLSLAMGRPVRQNLAMTGEVSLTGKILPVGGIKEKTIAAKRAGVTCIVLPAENKKDFYDLAAFITEGLEVHFVEHYREIFDIAFPDEQAEALAVER
Question: With B1 as the binder, how does the binding read?
Answer: The binding was “binds”.

No constants are given. Whether binding was seen depends on the method and setting. Binding seen in cells or lysates may run through a third protein. A result given as binding can be weak or reduced; the word gives no strength.
